log2 fold change data for 36 targets are collected here from the supplement of paper PMC10849652.

Amino acid sequences for entries named in this document (tags omitted). A change or cut given only in a name is not applied to a line headed by its entry.
UniProt Q9UKJ5: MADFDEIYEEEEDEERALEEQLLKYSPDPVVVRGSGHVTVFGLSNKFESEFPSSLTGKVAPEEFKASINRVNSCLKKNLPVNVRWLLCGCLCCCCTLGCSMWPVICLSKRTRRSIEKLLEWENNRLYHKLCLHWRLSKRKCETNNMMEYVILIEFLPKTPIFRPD
UniProt Q9UKY7: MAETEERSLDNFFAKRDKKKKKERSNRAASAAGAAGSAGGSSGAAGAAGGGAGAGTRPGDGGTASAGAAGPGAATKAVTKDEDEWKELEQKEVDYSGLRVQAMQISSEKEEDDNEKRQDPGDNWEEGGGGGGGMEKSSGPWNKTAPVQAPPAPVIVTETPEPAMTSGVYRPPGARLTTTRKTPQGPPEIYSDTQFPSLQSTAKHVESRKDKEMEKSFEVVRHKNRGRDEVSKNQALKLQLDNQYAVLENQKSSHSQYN
UniProt Q9C0F1: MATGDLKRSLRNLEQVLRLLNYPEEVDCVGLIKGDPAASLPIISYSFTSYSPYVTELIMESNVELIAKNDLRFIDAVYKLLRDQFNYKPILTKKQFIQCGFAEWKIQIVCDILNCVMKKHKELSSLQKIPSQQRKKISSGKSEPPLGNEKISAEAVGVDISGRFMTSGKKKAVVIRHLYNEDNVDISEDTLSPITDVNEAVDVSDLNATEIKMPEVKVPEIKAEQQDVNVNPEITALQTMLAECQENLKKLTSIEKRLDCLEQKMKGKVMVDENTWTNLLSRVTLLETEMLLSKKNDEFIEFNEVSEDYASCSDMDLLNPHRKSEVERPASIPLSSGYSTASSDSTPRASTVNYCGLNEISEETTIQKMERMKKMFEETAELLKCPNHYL
UniProt Q9NYV4, whole entry, looked up: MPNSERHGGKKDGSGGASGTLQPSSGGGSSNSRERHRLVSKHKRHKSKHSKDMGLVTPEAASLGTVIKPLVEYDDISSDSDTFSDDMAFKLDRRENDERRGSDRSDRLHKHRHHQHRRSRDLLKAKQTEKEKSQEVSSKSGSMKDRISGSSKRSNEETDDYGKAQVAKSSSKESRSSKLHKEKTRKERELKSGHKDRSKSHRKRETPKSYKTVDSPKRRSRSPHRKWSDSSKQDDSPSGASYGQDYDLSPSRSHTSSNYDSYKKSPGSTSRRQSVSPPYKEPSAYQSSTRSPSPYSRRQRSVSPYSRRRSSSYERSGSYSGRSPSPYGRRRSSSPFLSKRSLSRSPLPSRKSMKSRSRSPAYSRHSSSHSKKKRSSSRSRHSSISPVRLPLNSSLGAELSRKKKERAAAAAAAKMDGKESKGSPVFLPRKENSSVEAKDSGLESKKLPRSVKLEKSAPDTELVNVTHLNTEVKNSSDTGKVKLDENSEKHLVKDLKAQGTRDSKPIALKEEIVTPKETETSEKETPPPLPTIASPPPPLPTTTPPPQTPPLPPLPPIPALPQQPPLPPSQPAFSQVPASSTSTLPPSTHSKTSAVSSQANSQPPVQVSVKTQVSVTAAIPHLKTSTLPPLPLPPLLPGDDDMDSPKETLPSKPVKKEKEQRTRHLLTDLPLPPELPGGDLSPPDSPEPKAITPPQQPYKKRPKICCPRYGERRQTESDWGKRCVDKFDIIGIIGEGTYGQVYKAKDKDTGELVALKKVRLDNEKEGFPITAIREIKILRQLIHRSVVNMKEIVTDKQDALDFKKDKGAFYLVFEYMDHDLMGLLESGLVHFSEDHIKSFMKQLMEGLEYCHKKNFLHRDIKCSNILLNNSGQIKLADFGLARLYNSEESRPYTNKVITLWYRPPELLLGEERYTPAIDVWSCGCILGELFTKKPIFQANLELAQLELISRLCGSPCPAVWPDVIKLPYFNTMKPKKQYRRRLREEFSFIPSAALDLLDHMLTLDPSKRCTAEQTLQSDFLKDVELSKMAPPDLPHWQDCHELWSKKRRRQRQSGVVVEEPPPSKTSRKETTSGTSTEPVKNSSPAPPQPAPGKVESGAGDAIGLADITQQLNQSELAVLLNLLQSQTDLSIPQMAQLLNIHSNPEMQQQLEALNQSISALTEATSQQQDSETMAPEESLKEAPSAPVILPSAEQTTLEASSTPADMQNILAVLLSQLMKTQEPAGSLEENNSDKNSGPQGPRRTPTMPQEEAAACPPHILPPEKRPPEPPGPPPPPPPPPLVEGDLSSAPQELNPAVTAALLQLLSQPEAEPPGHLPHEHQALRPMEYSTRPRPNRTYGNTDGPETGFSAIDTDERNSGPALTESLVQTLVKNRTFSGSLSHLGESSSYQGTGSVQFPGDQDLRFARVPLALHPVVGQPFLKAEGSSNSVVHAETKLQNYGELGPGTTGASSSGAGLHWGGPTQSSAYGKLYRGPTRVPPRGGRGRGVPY
UniProt Q00537: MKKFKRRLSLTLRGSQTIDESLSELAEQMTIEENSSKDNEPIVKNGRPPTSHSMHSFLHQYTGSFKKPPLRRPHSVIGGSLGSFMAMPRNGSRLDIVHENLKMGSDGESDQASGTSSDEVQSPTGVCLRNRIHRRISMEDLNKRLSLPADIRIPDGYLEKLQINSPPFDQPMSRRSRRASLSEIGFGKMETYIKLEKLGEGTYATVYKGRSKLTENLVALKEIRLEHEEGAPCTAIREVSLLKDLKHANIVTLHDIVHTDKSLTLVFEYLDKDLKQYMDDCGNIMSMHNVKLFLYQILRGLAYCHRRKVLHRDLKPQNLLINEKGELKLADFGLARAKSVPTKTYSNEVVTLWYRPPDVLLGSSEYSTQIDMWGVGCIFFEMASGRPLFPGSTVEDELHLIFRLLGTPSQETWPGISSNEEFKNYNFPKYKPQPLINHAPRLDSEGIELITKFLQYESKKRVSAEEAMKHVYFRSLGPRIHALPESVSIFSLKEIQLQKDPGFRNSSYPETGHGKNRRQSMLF
UniProt P11802: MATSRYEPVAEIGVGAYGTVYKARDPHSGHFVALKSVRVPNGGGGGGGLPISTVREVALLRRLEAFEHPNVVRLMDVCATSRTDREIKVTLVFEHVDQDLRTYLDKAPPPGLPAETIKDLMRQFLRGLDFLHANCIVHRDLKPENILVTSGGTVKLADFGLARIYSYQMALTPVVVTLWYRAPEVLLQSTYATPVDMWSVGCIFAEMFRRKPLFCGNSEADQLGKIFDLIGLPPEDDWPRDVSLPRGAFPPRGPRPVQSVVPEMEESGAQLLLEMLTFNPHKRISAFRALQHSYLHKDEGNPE
UniProt Q9Y281, whole entry, looked up: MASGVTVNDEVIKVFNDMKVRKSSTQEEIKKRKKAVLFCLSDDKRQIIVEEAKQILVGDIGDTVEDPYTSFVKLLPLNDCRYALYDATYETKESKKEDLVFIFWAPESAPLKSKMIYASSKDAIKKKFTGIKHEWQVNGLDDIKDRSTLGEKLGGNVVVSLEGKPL
UniProt P49336: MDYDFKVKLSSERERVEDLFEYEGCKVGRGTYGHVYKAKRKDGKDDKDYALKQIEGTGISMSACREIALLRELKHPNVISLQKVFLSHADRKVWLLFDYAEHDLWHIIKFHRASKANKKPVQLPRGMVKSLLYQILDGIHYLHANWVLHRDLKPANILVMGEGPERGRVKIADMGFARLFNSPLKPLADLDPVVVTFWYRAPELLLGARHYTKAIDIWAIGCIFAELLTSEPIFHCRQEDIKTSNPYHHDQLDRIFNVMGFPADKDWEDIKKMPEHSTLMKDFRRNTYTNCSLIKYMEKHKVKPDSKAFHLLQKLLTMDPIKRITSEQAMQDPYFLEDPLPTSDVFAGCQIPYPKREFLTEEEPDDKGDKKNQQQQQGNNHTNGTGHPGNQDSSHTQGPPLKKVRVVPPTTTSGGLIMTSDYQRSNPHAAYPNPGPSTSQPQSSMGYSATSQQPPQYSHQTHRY
UniProt P06493, whole entry, looked up: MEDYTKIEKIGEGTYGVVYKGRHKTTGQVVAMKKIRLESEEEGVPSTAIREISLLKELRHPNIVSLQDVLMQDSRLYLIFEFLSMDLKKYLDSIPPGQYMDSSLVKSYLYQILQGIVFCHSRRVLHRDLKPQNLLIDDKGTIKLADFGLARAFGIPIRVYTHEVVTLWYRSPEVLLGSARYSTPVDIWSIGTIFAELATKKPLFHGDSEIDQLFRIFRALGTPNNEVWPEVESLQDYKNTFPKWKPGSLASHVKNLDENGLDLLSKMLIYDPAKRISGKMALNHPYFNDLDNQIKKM
UniProt Q15517: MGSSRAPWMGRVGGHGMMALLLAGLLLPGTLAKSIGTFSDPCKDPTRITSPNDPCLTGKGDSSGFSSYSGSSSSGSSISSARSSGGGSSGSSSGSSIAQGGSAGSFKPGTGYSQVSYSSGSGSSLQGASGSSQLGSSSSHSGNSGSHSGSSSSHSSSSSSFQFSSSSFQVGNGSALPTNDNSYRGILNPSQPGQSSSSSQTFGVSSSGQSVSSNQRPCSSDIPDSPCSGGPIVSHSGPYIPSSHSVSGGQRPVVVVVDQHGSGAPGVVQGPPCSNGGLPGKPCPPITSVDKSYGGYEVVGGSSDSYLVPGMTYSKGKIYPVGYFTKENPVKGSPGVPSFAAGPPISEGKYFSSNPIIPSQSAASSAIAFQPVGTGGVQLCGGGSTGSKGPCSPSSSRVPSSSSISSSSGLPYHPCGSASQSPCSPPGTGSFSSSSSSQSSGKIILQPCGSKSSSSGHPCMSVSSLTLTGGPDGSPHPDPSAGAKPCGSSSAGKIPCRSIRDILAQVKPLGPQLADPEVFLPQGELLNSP
UniProt O75956: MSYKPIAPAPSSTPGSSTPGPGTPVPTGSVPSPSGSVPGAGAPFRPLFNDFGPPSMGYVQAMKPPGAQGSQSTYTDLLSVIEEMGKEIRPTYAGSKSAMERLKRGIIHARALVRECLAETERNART
UniProt P00751, whole entry, looked up: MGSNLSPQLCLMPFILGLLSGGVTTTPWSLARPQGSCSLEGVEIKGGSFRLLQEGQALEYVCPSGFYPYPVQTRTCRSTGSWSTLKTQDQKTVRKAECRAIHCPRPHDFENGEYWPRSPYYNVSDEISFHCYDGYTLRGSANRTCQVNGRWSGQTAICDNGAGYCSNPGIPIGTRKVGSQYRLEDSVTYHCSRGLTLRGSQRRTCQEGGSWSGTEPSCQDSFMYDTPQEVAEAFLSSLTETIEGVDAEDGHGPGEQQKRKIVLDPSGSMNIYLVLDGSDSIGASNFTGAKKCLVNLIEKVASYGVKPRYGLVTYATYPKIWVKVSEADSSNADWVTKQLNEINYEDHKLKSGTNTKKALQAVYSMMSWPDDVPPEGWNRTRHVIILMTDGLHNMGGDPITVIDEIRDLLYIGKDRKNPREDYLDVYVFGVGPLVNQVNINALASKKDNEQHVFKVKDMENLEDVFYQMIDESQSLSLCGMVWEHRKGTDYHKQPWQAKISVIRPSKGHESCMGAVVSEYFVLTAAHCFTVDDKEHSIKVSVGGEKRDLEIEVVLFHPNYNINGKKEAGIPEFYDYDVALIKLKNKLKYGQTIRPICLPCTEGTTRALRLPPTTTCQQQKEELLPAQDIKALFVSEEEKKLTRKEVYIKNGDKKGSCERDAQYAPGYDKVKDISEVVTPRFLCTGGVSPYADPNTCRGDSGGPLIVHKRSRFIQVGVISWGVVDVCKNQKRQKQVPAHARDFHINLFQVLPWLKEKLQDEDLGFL
UniProt Q96G28: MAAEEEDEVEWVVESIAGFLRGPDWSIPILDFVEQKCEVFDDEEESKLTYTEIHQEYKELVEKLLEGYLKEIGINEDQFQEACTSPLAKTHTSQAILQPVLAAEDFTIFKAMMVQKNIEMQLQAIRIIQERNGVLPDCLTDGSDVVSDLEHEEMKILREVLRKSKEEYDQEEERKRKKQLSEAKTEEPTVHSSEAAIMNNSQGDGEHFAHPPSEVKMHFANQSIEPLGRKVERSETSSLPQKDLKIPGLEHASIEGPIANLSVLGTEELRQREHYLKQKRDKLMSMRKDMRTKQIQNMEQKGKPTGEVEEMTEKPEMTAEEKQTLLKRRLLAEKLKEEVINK
UniProt O15182: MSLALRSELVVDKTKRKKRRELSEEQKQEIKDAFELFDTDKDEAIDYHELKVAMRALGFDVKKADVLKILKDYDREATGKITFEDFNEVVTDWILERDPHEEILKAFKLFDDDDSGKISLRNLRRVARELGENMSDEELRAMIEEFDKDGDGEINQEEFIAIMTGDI
UniProt Q6IPU0: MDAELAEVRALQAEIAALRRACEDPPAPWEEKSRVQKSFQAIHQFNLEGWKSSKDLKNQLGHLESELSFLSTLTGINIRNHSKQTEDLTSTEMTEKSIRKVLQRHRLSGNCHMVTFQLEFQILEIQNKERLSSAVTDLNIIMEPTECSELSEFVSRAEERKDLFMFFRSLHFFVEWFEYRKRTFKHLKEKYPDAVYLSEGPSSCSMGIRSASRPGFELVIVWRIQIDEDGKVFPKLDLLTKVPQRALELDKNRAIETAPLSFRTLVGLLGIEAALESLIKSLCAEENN
UniProt Q9BS16: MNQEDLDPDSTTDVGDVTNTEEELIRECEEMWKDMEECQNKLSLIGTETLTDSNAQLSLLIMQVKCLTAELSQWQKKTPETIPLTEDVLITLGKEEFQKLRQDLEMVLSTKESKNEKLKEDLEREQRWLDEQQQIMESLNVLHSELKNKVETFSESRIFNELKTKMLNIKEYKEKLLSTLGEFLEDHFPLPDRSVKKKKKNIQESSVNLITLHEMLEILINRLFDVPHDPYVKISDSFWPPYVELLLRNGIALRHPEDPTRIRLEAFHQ

The other results are listed elsewhere or left out.

Compound in the first test: C1=CC=C(C=C1)[C@H](COC2=CC3=C(C=C2)NC(=O)N3)NC(=O)C4=CC=CN(C4=O)CC5=CC(=C(C=C5)F)F
Description: log2 fold change, soluble protein after heating vs DMSO (PISA); higher = thermal stabilisation; K562 cells, 10 uM, 30 min; active = over 0.2 and 3.5 SD of the protein, either way, in both replicates (recomputed). In short, it runs like this:
(§1)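 Thermal stability values are relative to control samples and come from duplicates. They are expressed as log2 fold changes. For measurement, K562 cells (2×10^6 cells/mL) received 10 μM compound for 30 min, and aliquots were heated for 3 min over 48°C-58°C, pooled, and extracted at 4°C in PBS with 0.5% NP-40. Soluble protein, the supernatant after 21,000xg for 90 min, was quantified by TMTpro 16plex LC-MS/MS with equalised channel sums.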
In the case of CHIC2 (UniProt Q9UKJ5), the log2 fold change is inactive: -0.072.

As to CDV3 (UniProt Q9UKY7), the log2 fold change was inactive: 0.008.

Regarding CEP44 (UniProt Q9C0F1), the log2 fold change is inactive: -0.069.

For the target CDK12 (UniProt Q9NYV4), the log2 fold change is inactive: 0.102.

For the target CDK17 isoform 2 (UniProt Q00537), the log2 fold change was inactive: -0.095.

On to CHCHD1 (UniProt Q96BP2), for which the log2 fold change was inactive: 0.07.

With CDK4 (UniProt P11802), the log2 fold change is inactive: 0.012.

CFL2 (UniProt Q9Y281): the log2 fold change was inactive: 0.01.

With CDK8 (UniProt P49336), the log2 fold change is inactive: 0.

As for CDK1 (UniProt P06493), the log2 fold change is inactive: -0.019.

For CDSN (UniProt Q15517), the log2 fold change was inactive: -0.089.

As to CDK2AP2 (UniProt O75956), the log2 fold change was inactive: 0.026.

As to CFB (UniProt P00751), the log2 fold change is inactive: -0.029.

Regarding CFAP36 isoform 2 (UniProt Q96G28), the log2 fold change is inactive: -0.042.

Compound in another test: CC1=C(SC2=C1C(=N[C@H](C3=NN=C(N32)C)CC(=O)N)C4=CC=C(C=C4)Cl)C
The test is described as above. In short, it runs like this:
as §1
As for CFAP298 (UniProt P57076), the log2 fold change was inactive: -0.053.

As for CDKN1B (UniProt P46527), the log2 fold change was inactive: -0.029.

For CHCHD4 isoform 2 (UniProt Q8N4Q1), the log2 fold change was inactive: 0.205.

As for CDCA3 (UniProt Q99618), the log2 fold change was inactive: -0.066.

As for CHD4 isoform 2 (UniProt Q14839), the log2 fold change was inactive: 0.

Turning to CHAF1A (UniProt Q13111), the log2 fold change was inactive: -0.026.

For the target CHD3 isoform 3 (UniProt Q12873), the log2 fold change was inactive: 0.038.

CDK11B (UniProt P21127): the log2 fold change was inactive: 0.015.

Regarding CDS1 (UniProt Q92903), the log2 fold change is inactive: -0.103.

For CETN3 (UniProt O15182), the log2 fold change was inactive: -0.055.

For CDC42EP1 (UniProt Q00587), the log2 fold change is inactive: 0.107.

Consider CDC42SE2 (UniProt Q9NRR3), for which the log2 fold change was inactive: 0.175.

Take CEP250 (UniProt Q9BV73): the log2 fold change is inactive: -0.074.

As to CELF2 isoform 3 (UniProt O95319), the log2 fold change is inactive: 0.119.

As for CGGBP1 (UniProt Q9UFW8), the log2 fold change was inactive: -0.035.

Take CENPP (UniProt Q6IPU0): the log2 fold change is inactive: -0.052.

With CHMP2A (UniProt O43633), the log2 fold change is inactive: 0.02.

Consider CHD6 (UniProt Q8TD26), for which the log2 fold change was inactive: 0.077.

Regarding CEP192 (UniProt Q8TEP8), the log2 fold change was inactive: 0.073.

With CENPK (UniProt Q9BS16), the log2 fold change was inactive: -0.162.

Turning to CEBPB (UniProt P17676), the log2 fold change was inactive: 0.222.

Take CDC42BPB (UniProt Q9Y5S2): the log2 fold change was inactive: -0.031.

As for CHIC2 (UniProt Q9UKJ5), the log2 fold change was inactive: 0.052.

On to CDV3 (UniProt Q9UKY7), for which the log2 fold change was inactive: 0.03.

With CEP44 (UniProt Q9C0F1), the log2 fold change was inactive: -0.082.

As to CDK12 (UniProt Q9NYV4), the log2 fold change is inactive: -0.425.

As to CDK17 isoform 2 (UniProt Q00537), the log2 fold change was inactive: -0.006.

Consider CHCHD1 (UniProt Q96BP2), for which the log2 fold change is inactive: -0.056.

On to CDK4 (UniProt P11802), for which the log2 fold change was inactive: 0.128.

Consider CFL2 (UniProt Q9Y281), for which the log2 fold change is inactive: 0.007.

Take CDK8 (UniProt P49336): the log2 fold change was inactive: -0.043.

As to CDK1 (UniProt P06493), the log2 fold change is inactive: 0.036.

With CDSN (UniProt Q15517), the log2 fold change is inactive: 0.182.

Regarding CDK2AP2 (UniProt O75956), the log2 fold change was inactive: -0.017.

With CFB (UniProt P00751), the log2 fold change was inactive: -0.014.

CFAP36 isoform 2 (UniProt Q96G28): the log2 fold change was inactive: 0.01.

Compound in the next test: CC1=C2C(=CC=C1)N=C(N(C2=O)C3=CC=CC=C3C)CN4C=NC5=C(N=CN=C54)N
The description is as above. The method in brief: as §1
With CFAP298 (UniProt P57076), the log2 fold change is inactive: 0.133.

Regarding CDKN1B (UniProt P46527), the log2 fold change is inactive: -0.036.

For CHCHD4 isoform 2 (UniProt Q8N4Q1), the log2 fold change is inactive: -0.006.

On to CDCA3 (UniProt Q99618), for which the log2 fold change was inactive: 0.027.

As for CHD4 isoform 2 (UniProt Q14839), the log2 fold change is inactive: 0.021.

With CHD3 isoform 3 (UniProt Q12873), the log2 fold change is inactive: 0.069.

With CDK11B (UniProt P21127), the log2 fold change was inactive: 0.137.

As to CETN3 (UniProt O15182), the log2 fold change is inactive: 0.109.

For the target CDC42EP1 (UniProt Q00587), the log2 fold change was inactive: 0.041.

With CDC42SE2 (UniProt Q9NRR3), the log2 fold change was inactive: -0.012.

In the case of CEP250 (UniProt Q9BV73), the log2 fold change was inactive: -0.029.

As for CELF2 isoform 3 (UniProt O95319), the log2 fold change was inactive: 0.013.

Regarding CGGBP1 (UniProt Q9UFW8), the log2 fold change was inactive: 0.017.

Consider CHMP2A (UniProt O43633), for which the log2 fold change was inactive: -0.001.

Regarding CHD6 (UniProt Q8TD26), the log2 fold change is inactive: -0.001.

Take CEP192 (UniProt Q8TEP8): the log2 fold change is inactive: 0.029.

For CENPK (UniProt Q9BS16), the log2 fold change was inactive: -0.093.

For the target CDC42BPB (UniProt Q9Y5S2), the log2 fold change is inactive: 0.009.

CHIC2 (UniProt Q9UKJ5): the log2 fold change is inactive: -0.021.

On to CDV3 (UniProt Q9UKY7), for which the log2 fold change is inactive: 0.003.

In the case of CEP44 (UniProt Q9C0F1), the log2 fold change was inactive: -0.007.

Take CDK12 (UniProt Q9NYV4): the log2 fold change is inactive: -0.103.

As for CDK17 isoform 2 (UniProt Q00537), the log2 fold change is inactive: -0.049.

CHCHD1 (UniProt Q96BP2): the log2 fold change was inactive: -0.031.

On to CDK4 (UniProt P11802), for which the log2 fold change was inactive: 0.119.

Consider CFL2 (UniProt Q9Y281), for which the log2 fold change is inactive: 0.178.

In the case of CDK8 (UniProt P49336), the log2 fold change was inactive: 0.018.

As to CDK1 (UniProt P06493), the log2 fold change is inactive: 0.003.

On to CDSN (UniProt Q15517), for which the log2 fold change is inactive: -0.454.

In the case of CFB (UniProt P00751), the log2 fold change was inactive: 0.079.

Turning to CFAP36 isoform 2 (UniProt Q96G28), the log2 fold change was active: 0.383.
